PubChem BioAssay AID588590 (National Center for Advancing Translational Sciences (NCATS), 2011)
The campaign covered roughly 390,000 compounds. About 4,000 (1%) were called active. This list was built around the results that the source calls inconclusive (neither active nor inactive); the mix of calls is not that of the screen. Calls come from the whole dose curve; as a rule, active = well fitted inhibition curve with a large enough effect; inconclusive = small, poorly fitted or top-dose-only effect, or another doubt; inactive = no such curve, though single readings can be large or run the other way. Potencies of inconclusive entries are doubtful fits and often do not repeat.

By UniProt entry, the sequences of proteins in these tests, tags left out. Where a name states a change or a piece, a line headed by the entry shows the natural chain unless it says otherwise.
UniProt Q9UNA4: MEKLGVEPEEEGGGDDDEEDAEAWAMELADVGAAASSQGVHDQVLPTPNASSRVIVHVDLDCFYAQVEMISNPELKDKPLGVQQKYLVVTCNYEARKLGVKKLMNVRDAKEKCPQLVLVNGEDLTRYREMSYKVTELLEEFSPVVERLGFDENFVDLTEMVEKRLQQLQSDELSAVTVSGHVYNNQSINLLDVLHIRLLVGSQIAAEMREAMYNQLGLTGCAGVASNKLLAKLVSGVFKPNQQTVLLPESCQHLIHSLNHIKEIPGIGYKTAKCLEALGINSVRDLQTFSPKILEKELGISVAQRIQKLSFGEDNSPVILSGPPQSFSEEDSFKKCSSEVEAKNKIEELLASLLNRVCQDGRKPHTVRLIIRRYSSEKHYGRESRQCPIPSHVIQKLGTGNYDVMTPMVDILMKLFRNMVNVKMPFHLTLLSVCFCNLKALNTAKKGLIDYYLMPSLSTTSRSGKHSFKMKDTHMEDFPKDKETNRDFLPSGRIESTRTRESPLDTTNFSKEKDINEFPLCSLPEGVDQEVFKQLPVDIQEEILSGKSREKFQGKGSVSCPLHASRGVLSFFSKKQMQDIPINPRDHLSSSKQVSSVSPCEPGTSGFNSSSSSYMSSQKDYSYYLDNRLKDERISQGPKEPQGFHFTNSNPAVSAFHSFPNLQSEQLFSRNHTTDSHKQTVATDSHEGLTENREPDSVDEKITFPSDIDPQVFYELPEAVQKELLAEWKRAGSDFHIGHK

These molecules were tested against DNA polymerase iota (Homo sapiens) (UniProt Q9UNA4) (assay: qHTS for Inhibitors of Polymerase Iota). Settings: Pol iota fluorescent replication assay, 10 min; series mostly up to 115 µM.
Summary of the method: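 Fluorescent replication assay read twice, at 0 min and 10 min after adding 50 nM (final) substrate. Enzyme (10 nM) and compounds were first incubated 15 min at room temperature; enzyme-free buffer wells were negative controls.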
Potency is the fitted concentration of half-maximal effect.

Row | Structure (SMILES) | Potency
1 | CCOC(=O)c1c(C)[nH]c(C(=O)OCC(=O)Nc2sccc2C(N)=O)c1C | inconclusive: 17.8 µM [inhibitor, full curve]
2 | O=C(CC1NCCNC1=O)Nc1ccccc1F (stereo unspecified) | inactive
3 | O=C(CSc1nnc(Cc2csc(Nc3cccc(Cl)c3)n2)o1)N1CCc2ccccc21 | active: 79.4 µM
4 | NC(=S)N/N=C/c1ccc2cccc(OCc3ccccc3)c2n1 | inconclusive: 25.1 µM [inhibitor, partial curve, poor fit]
5 | COc1ccc(C2CC(=O)c3c(C)nc(N4CCN(C=O)CC4)nc3C2)c(OC)c1 (stereo unspecified) | inactive
6 | C=C1C(=O)c2sccc2C(c2ccc(OC)c(OC)c2)C1COC(C)=O (stereo unspecified) | inconclusive: 25.1 µM [inhibitor, full curve, poor fit]
7 | COc1cccc(C=C2SC(=S)NC2=O)c1 | inactive
8 | OC1(C2(O)CC(c3ccccc3)ON2)CCCCC1 (stereo unspecified) | inconclusive: 12.6 µM [inhibitor, full curve, poor fit]
9 | CN1CCC[C@H]1CCNc1ccc2c(=O)c3ccccc3n(C)c2c1 | active: 28.2 µM
10 | Nc1nonc1-n1nnc(C(=O)N/N=C/c2ccc(OCc3ccccc3)cc2)c1CNc1ccccc1 | inconclusive: 70.8 µM [inhibitor, partial curve]
11 | Cc1ccc2c(c1)CCC2=O | inconclusive: 89.1 µM [inhibitor, single point]
12 | O=C(CSC1=NS(=O)(=O)c2ccccc2N1)N1CCCCC1 | inconclusive: 20 µM [inhibitor, single point]
13 | CC(=O)c1cccc(NC(=O)COC(=O)CCC(=O)c2cccs2)c1 | inactive
14 | CCC(=O)OCCNc1cc(SCCC(=O)OC)c2nonc2c1[N+](=O)[O-] | inconclusive: 17.8 µM [inhibitor, partial curve, poor fit]
15 | Cc1ccc(C(=O)OCC(=O)N2CC(C)CC(C)C2)cc1S(=O)(=O)N1CCCCC1 (stereo unspecified) | inactive
16 | O=C(Nc1ccc(-c2cc3ccccc3oc2=O)c(Cl)c1)c1cccnc1 | inconclusive: 100 µM [inhibitor, single point]
17 | COc1ccc(-n2c(C)nc3c(cnn3-c3ccc(C)c(C)c3)c2=O)cc1 | inconclusive: 79.4 µM [inhibitor, partial curve, poor fit]
18 | CC(C)c1ccc(/C=C/c2[nH]c(=O)[nH]c(=O)c2[N+](=O)[O-])cc1 | inconclusive: 35.5 µM [inhibitor, full curve, poor fit]
19 | CC(C)c1cccc(OCC(=O)Nc2ccc(S(=O)(=O)Nc3ccccn3)cc2)c1 | inconclusive: 79.4 µM [inhibitor, single point]
20 | CC(OC(=O)CNS(=O)(=O)c1ccc2ccccc2c1)C(=O)N(C)c1ccccc1 (stereo unspecified) | inconclusive: 89.1 µM [inhibitor, single point]
21 | Cc1cccn2c(=O)c3cc(C#N)c(=N)n(CCN4CCOCC4)c3nc12 | inconclusive: 39.8 µM [inhibitor, single point]

Row | Structure (SMILES) | Potency
22 | O=C(Nc1nnc(N2CCCCCC2)s1)Nc1ccccc1C(F)(F)F | inactive
23 | COC(=O)c1c(C)oc2ccc(NS(=O)(=O)c3cccs3)cc12 | inconclusive: 39.8 µM [inhibitor, partial curve, poor fit]
24 | CCC(Sc1nc2ccccc2c2nc(CCc3c(C)n[nH]c3C)nn12)C(=O)Nc1ccc(OC)cc1 (stereo unspecified) | inconclusive: 89.1 µM [inhibitor, single point]
25 | COc1cc(C(=O)Nc2nc3c(s2)Cc2c(Br)ccc(OC)c2-3)cc(OC)c1OC | inactive
26 | O=C(CN1C(=O)c2ccccc2S1(=O)=O)NCCSCc1c(F)cccc1Cl | inactive
27 | N#C/C(=C\c1ccc(Cl)s1)C(=O)N1CCN(c2ccccc2)CC1 | inconclusive: 89.1 µM [inhibitor, partial curve, poor fit]
28 | S=C(Nc1cccnc1)Nc1cccc2cnccc12 | inconclusive: 28.2 µM [inhibitor, partial curve]
29 | CCN(CC)S(=O)(=O)N1CCC(C(=O)NC2CCCC2)CC1 | inconclusive: 15.8 µM [inhibitor, full curve, poor fit]
30 | CCN1C(=O)[C@@H]2[C@@H](c3ccc(SC4CCCCC4)cc3)N3CCC[C@@]3(C(=O)OC)[C@@H]2C1=O | inconclusive: 31.6 µM [inhibitor, single point]
31 | COC(=O)c1ccccc1NC(=O)CSc1nc(N)cc(=O)[nH]1 | inconclusive: 2.51 µM [inhibitor, partial curve, poor fit]
32 | CN1CCSc2ccc(C(=O)NCc3ccccc3F)cc21 | inconclusive: 50.1 µM [inhibitor, single point]
33 | CCc1ccc(Nc2nnc(SCC(=O)Nc3sccc3C(N)=O)s2)cc1 | inconclusive: 35.5 µM [inhibitor, partial curve, poor fit]
34 | Cc1cc(C)n2nc(SCC(=O)c3ccc[nH]3)nc2n1 | inconclusive: 39.8 µM [inhibitor, partial curve, poor fit]
35 | O=C1/C(=C\c2ccc(O)cc2)SC(=S)N1/N=C/c1ccc(O)cc1 | inconclusive: 50.1 µM [inhibitor, partial curve, poor fit]
36 | COC(=O)c1c(C)sc(-c2c(-c3ccc4c(c3)OCCO4)[nH]c3[nH]c(=O)[nH]c(=O)c23)c1O | inconclusive: 56.2 µM [inhibitor, partial curve, poor fit]
37 | Cc1nc2cc(-c3ccc(F)cc3)[nH]n2c(=O)c1C | inconclusive: 70.8 µM [inhibitor, single point]
38 | Cc1ccc(SCc2cc(=O)[nH]c(SCC(=O)Nc3cc(Cl)ccc3Cl)n2)cc1 | inconclusive: 22.4 µM [inhibitor, partial curve, poor fit]
39 | COc1ccc(CCNC(=O)c2ccc(N3CCCCS3(=O)=O)cc2)cc1OC | active: 79.4 µM
40 | O=C(COc1coc(CN2CCc3ccccc32)cc1=O)Nc1ccc([N+](=O)[O-])cc1 | inconclusive: 56.2 µM [inhibitor, partial curve, poor fit]
41 | Cc1cc(C(=O)N2CCN(S(C)(=O)=O)CC2)sc1-c1ccccc1 | inconclusive: 79.4 µM [inhibitor, single point]

Quoted at random: four records from the list.
Row | Structure (SMILES) | Potency
35 | O=C1/C(=C\c2ccc(O)cc2)SC(=S)N1/N=C/c1ccc(O)cc1 | inconclusive: 50.1 µM [inhibitor, partial curve, poor fit]
2 | O=C(CC1NCCNC1=O)Nc1ccccc1F (stereo unspecified) | inactive
14 | CCC(=O)OCCNc1cc(SCCC(=O)OC)c2nonc2c1[N+](=O)[O-] | inconclusive: 17.8 µM [inhibitor, partial curve, poor fit]
40 | O=C(COc1coc(CN2CCc3ccccc32)cc1=O)Nc1ccc([N+](=O)[O-])cc1 | inconclusive: 56.2 µM [inhibitor, partial curve, poor fit]
